The other results are listed elsewhere or left out.

This test concerns T1, CTL2-GFP (C. trachomatis L2/434/Bu, GFP-expressing).
T1 construct: L2/434/Bu, GFP-expressing
Further details: species or system HeLa; Intracellular C. trachomatis growth in HeLa cells, bulk GFP fluorescence relative to DMSO. Conditions: bulk GFP, single well; 28.5 h, 10 µM; inhibitor.
For `CC(C)(C)CC(=O)N[C@H]1C[C@H]2C(=O)Nc3ccccc3C(=O)N2C1` [CBK289352], the “% of control remaining” value is reported as 104.587%.
As to `CCOC(=O)c1sc(NS(=O)(=O)c2ccc(C(=O)O)cc2)cc1C` [CBK296623], the “% of control remaining” value is reported as 138.146%.
For the molecule `CN(c1nc(-c2cccnc2)cn2ccnc12)C1CCCCC1` [CBK093609], the “% of control remaining” value came to 117.612%.
The figure for `COc1ccc(C2(CNC(=O)c3ccc(C)cc3)CCOCC2)cc1` [CBK067060] is 95.4389%; for `COc1cc(C#N)ccc1OCc1ccc2nc(C(F)(F)F)cc(Cl)c2c1` [CBK002589] it is 72.1028%.
In the case of `COCC(=O)N1CCN2C(=O)[C@@H]3C[C@@H](OCc4ccc(F)cc4)CN3C(=O)[C@@H]2C1` [CBK289605] it was 126.188%.
In the case of `COc1ccc(-c2cnc(N)c(N3CCN(C)CC3)n2)c(OC)c1OC` [CBK063489] it was 109.28%.
For the molecule `CCCNC(=O)Cn1ncc2c3sc(C)cc3n(CC)c2c1=O` [CBK284171], the “% of control remaining” value stood at 125.794%.
On to `COc1ccc(S(=O)(=O)Nc2nc3c(s2)C(=O)CC(C)(C)C3)cc1` [CBK095611], for which the “% of control remaining” value is listed as 114.847%.
In the case of `O=C(O)C(c1c[nH]c2cc(F)ccc12)N1CCN(c2ccccc2)CC1` (stereo not shown) [CBK286675] it was 128.116%; in that of `Cc1cc(S(=O)(=O)NCC(=O)OC(C)C)c(C)cc1Cl` [CBK044196], 106.856%; in that of `CCNC(=O)c1cncc(-c2[nH]nnc2-c2ccccc2)c1` [CBK160354], 98.0553%.
The figure for `CCOC(=O)CN1CCC(Oc2nccnc2OC2CCCCC2)CC1` [CBK082867T] is 88.3707%; for `CN1CCN(S(=O)(=O)c2ccc(NC(=O)c3cc(-c4cccnc4)nc4ccc(Cl)cc34)cc2)CC1` [CBK267734] it is 129.814%.
Take `Cc1cc(NC(=O)c2c(F)cccc2F)c2ccccc2n1` [CBK122737]: the “% of control remaining” value was found to be 121.727%.
Take `Cc1ccc(C(=O)N2CCC(O)(c3cccnc3F)CC2)o1` [CBK284358]: the “% of control remaining” value amounted to 118.211%.
As for `O=C(OCCN1C[C@H]2CCCCC2C1c1ccccc1)c1ccc(Br)cc1` (stereo partly shown) [CBK016175C], the “% of control remaining” value is reported as 138.011%.
In the case of `Cc1ccc([N+](=O)[O-])cc1NC(=O)CSC1=NCCS1` [CBK267489], the “% of control remaining” value was 130.532%.
The figure for `O=C(O)CC(Cc1ccc(Cl)cc1)C(=O)NCc1ccccc1` (stereo not shown) [CBK286984] is 107.469%; for `CNC(=O)c1c(C)nc2ccccc2c1SCCC(=O)O` [CBK154987T] it is 116.288%.
As for `CCSc1ccc(-c2cn3ccnc3c(N3CCN(CCN(C)C)CC3)n2)cc1` [CBK066662], the “% of control remaining” value turned out to be 205.336%.
For the molecule `Cc1nc(NC(CC(C)C)C(=O)O)c2nc(C)oc2n1` (stereo not shown) [CBK022157], the “% of control remaining” value is recorded as 124.124%.

Source of the values: publication PMC12040169 (PLOS Biology, 2025).
